Laboratory results: the supplement of paper PMC4604168 (melanoma cell lines)
This is one part of the list. Repeats are few or missing, and single values can be far off.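 The apoptosis fraction was the count of cleaved-PARP antibody-stained nuclei relative to all DNA-stained nuclei, imaged in 1,536-well plates. Screening doses were set so most cells survived, and baseline and induced cleaved-PARP levels vary greatly across cell lines.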

Tested on: A2058
Test: cleaved PARP positive nuclei fraction relative to DMSO control; melanoma cells; higher = more apoptosis
Details: library dose: low library concentration; 72 h

Compared with `OCCn1cc(-c2cnc3nnn(Cc4ccc5ncccc5c4)c3n2)cn1` + Oc1cc(-c2nc(-c3ccccc3)[nH]c2-c2ccncc2)ccc1Cl [L779450] (first compound 1 µM, partner dose 0.2 µM), `Cc1nc(Nc2ncc(C(=O)Nc3c(C)cccc3Cl)s2)cc(N2CCN(CCO)CC2)n1` [dasatanib] + Cc1cc([N+](=O)[O-])ccc1NS(=O)(=O)c1cc(Cl)ccc1Cl [FH535] (first compound 0.004 µM, partner dose 1 µM) is lower in “cleaved PARP positive nuclei fraction” value: 133% for the first, 116% for the second.

First: CO[C@@H]1[C@H](N(C)C(=O)c2ccccc2)C[C@H]2O[C@]1(C)n1c3ccccc3c3c4c(c5c6ccccc6n2c5c31)C(=O)NC4 [Midostaurin] + O=C(Nc1ccccc1)c1cc([N+](=O)[O-])ccc1Cl [GW9662] (first compound 0.08 µM, partner dose 2 µM)
Second: Cc1ccc(NC(=O)c2cccc(N(C)C)c2)cc1NC(=O)c1ccc(O)cc1 + N#Cc1c(O)c2c(-c3ccc(-c4ccccc4O)cc3)csc2[nH]c1=O [A769662] (first compound 2 µM, partner dose 2 µM)
The “cleaved PARP positive nuclei fraction” value of the first is higher: 135% for the first, 118% for the second.

Compared with `CC1(C)NC(=O)N(c2ccc([N+](=O)[O-])c(C(F)(F)F)c2)C1=O` [nilutamide] + COC(=O)c1sccc1S(=O)(=O)Nc1ccc(Nc2ccccc2)cc1OC [GSK0660] (first compound 1 µM, partner dose 1 µM), `Nc1cccc2c1CN(C1CCC(=O)NC1=O)C2=O` (stereo not drawn) [lenalidomide] + CCN(CC)CCCCNc1ncc2cc(-c3cc(OC)cc(OC)c3)c(NC(=O)NC(C)(C)C)nc2n1 [PD173074] (first compound 1 µM, partner dose 0.1 µM) is higher in “cleaved PARP positive nuclei fraction” value: 107% for the first, 125% for the second.

Going from `C[C@@H]1CCN(C(=O)CC#N)C[C@@H]1N(C)c1ncnc2[nH]ccc12` + O=C(Nc1ccccc1)c1cc([N+](=O)[O-])ccc1Cl [GW9662] (first compound 1 µM, partner dose 2 µM) to `CC(C)(C)c1cnc(CSc2cnc(NC(=O)C3CCNCC3)s2)o1` + Oc1cc(-c2nc(-c3ccccc3)[nH]c2-c2ccncc2)ccc1Cl [L779450] (first compound 0.01 µM, partner dose 0.2 µM), the “cleaved PARP positive nuclei fraction” value rises from 27% to 137%.

First: C=CCn1c(=O)c2cnc(Nc3ccc(N4CCN(C)CC4)cc3)nc2n1-c1cccc(C(C)(C)O)n1 + O=c1cc(-c2cccc3c2Sc2ccccc2S3)oc(N2CCOCC2)c1 [KU55933] (first compound 0.02 µM, partner dose 1 µM)
Second: Cc1nc(Nc2ncc(C(=O)Nc3c(C)cccc3Cl)s2)cc(N2CCN(CCO)CC2)n1 [dasatanib] + COC(=O)c1sccc1S(=O)(=O)Nc1ccc(Nc2ccccc2)cc1OC [GSK0660] (first compound 0.004 µM, partner dose 1 µM)
The “cleaved PARP positive nuclei fraction” value of the first is lower: 74.1% for the first, 83.1% for the second.

First: Cc1cc(N2CCOCC2)cc2[nH]c(-c3c(NC[C@@H](O)c4cccc(Cl)c4)cc[nH]c3=O)nc12 + O=C(O)C(=O)Nc1sc2c(c1C(=O)O)CCNC2 [TCS401] (first compound 0.2 µM, partner dose 1.66667 µM)
Second: C=CCn1c(=O)c2cnc(Nc3ccc(N4CCN(C)CC4)cc3)nc2n1-c1cccc(C(C)(C)O)n1 + CCN(CC)CCCCNc1ncc2cc(-c3cc(OC)cc(OC)c3)c(NC(=O)NC(C)(C)C)nc2n1 [PD173074] (first compound 0.02 µM, partner dose 0.1 µM)
The “cleaved PARP positive nuclei fraction” value of the first is lower: 52.2% for the first, 124% for the second.

First: Cc1cc(N2CCOCC2)cc2[nH]c(-c3c(NC[C@@H](O)c4cccc(Cl)c4)cc[nH]c3=O)nc12 + O=c1cc(-c2cccc3c2Sc2ccccc2S3)oc(N2CCOCC2)c1 [KU55933] (first compound 0.2 µM, partner dose 1 µM)
Second: C=CCn1c(=O)c2cnc(Nc3ccc(N4CCN(C)CC4)cc3)nc2n1-c1cccc(C(C)(C)O)n1 + COc1cc2ncnc(Nc3ccc(Oc4ccccc4)cc3)c2cc1OC [SrcI1] (first compound 0.02 µM, partner dose 2 µM)
The “cleaved PARP positive nuclei fraction” value of the first is higher: 75.2% for the first, 71.9% for the second.

Going from `C#Cc1cccc(Nc2ncnc3cc(OCCOC)c(OCCOC)cc23)c1` [erlotinib] + O=c1cc(-c2cccc3c2Sc2ccccc2S3)oc(N2CCOCC2)c1 [KU55933] (first compound 0.8 µM, partner dose 1 µM) to `COCC[n+]1c2c(n(Cc3cnccn3)c1C)C(=O)c1ccccc1C2=O` + COc1ccc(-c2ccc3c(N4CCOCC4)nc(N4C[C@@H](C)O[C@@H](C)C4)nc3n2)cc1CO [KU0063794] (first compound 0.0004 µM, partner dose 0.02 µM), the “cleaved PARP positive nuclei fraction” value rises from 114% to 219%.

First: Cn1c(Nc2ccc(C(F)(F)F)cc2)nc2cc(Oc3ccnc(-c4ncc(C(F)(F)F)[nH]4)c3)ccc21 + O=C1NC(=O)/C(=C/c2ccc(-c3ccc(F)cc3O)o2)S1 [AS252424] (first compound 0.08 µM, partner dose 1 µM)
Second: Cn1cncc1[C@@](N)(c1ccc(Cl)cc1)c1ccc2c(c1)c(-c1cccc(Cl)c1)cc(=O)n2C [tipifarnib] + COc1cc2ncnc(Nc3ccc(Oc4ccccc4)cc3)c2cc1OC [SrcI1] (first compound 0.01 µM, partner dose 2 µM)
The “cleaved PARP positive nuclei fraction” value of the first is lower: 57.2% for the first, 116% for the second.

Going from `NC(=O)Nc1cc(-c2cccc(F)c2)sc1C(=O)N[C@H]1CCCNC1` + CCCCCCCCCCCC1=C(O)C(=O)C=C(O)C1=O [Embelin] (first compound 0.02 µM, partner dose 1.2 µM) to `Nc1cccc2c1CN(C1CCC(=O)NC1=O)C2=O` (stereo not drawn) [lenalidomide] + O=C(Nc1ccccc1)c1cc([N+](=O)[O-])ccc1Cl [GW9662] (first compound 1 µM, partner dose 2 µM), the “cleaved PARP positive nuclei fraction” value rises from 44.8% to 65.2%.

Compared with `Cn1c(Nc2ccc(C(F)(F)F)cc2)nc2cc(Oc3ccnc(-c4ncc(C(F)(F)F)[nH]4)c3)ccc21` + N#Cc1c(O)c2c(-c3ccc(-c4ccccc4O)cc3)csc2[nH]c1=O [A769662] (first compound 0.08 µM, partner dose 2 µM), `OCCn1cc(-c2cnc3nnn(Cc4ccc5ncccc5c4)c3n2)cn1` + Cc1cc([N+](=O)[O-])ccc1NS(=O)(=O)c1cc(Cl)ccc1Cl [FH535] (first compound 1 µM, partner dose 1 µM) is lower in “cleaved PARP positive nuclei fraction” value: 98.8% for the first, 36.7% for the second.

First: Cn1nnc2c(C(N)=O)ncn2c1=O [temozolomide] + COc1cc(N2CCC(N3CCN(C)CC3)CC2)ccc1Nc1ncc(Cl)c(Nc2ccccc2S(=O)(=O)C(C)C)n1 [NVP-TAE684] (first compound 2 µM, partner dose 0.08 µM)
Second: C[C@@H]1CCN(C(=O)CC#N)C[C@@H]1N(C)c1ncnc2[nH]ccc12 + O=C(O)C(=O)Nc1sc2c(c1C(=O)O)CCNC2 [TCS401] (first compound 1 µM, partner dose 1.66667 µM)
The “cleaved PARP positive nuclei fraction” value of the first is higher: 375% for the first, 83.7% for the second.

Compared with `O=C(CCCCCCC(=O)Nc1ccccc1)NO` [vorinostat] + COc1ccc(COc2ccc(Cc3cnc(N)nc3N)cc2OC)cc1 [GW2580] (first compound 0.08 µM, partner dose 1 µM), `C#Cc1cccc(Nc2ncnc3cc(OCCOC)c(OCCOC)cc23)c1` [erlotinib] + Oc1cc(-c2nc(-c3ccccc3)[nH]c2-c2ccncc2)ccc1Cl [L779450] (first compound 0.8 µM, partner dose 0.2 µM) is lower in “cleaved PARP positive nuclei fraction” value: 132% for the first, 65.1% for the second.

First: C#Cc1cccc(Nc2ncnc3cc(OCCOC)c(OCCOC)cc23)c1 [erlotinib] + N#Cc1c(O)c2c(-c3ccc(-c4ccccc4O)cc3)csc2[nH]c1=O [A769662] (first compound 0.8 µM, partner dose 2 µM)
Second: COc1cc(Nc2ncc(F)c(Nc3ccc4c(n3)NC(=O)C(C)(C)O4)n2)cc(OC)c1OC [Tamatinib] + O=C1NC(=O)/C(=C/c2ccc(-c3ccc(F)cc3O)o2)S1 [AS252424] (first compound 0.4 µM, partner dose 1 µM)
The “cleaved PARP positive nuclei fraction” value of the first is lower: 41.6% for the first, 107% for the second.

Going from `OCCn1cc(-c2cnc3nnn(Cc4ccc5ncccc5c4)c3n2)cn1` + COc1ccc2c(c1)CCC1C2CCC2(C)C(NCCCCCCN3C(=O)C=CC3=O)CCC12 [U73122] (first compound 1 µM, partner dose 0.4 µM) to `Cn1c(Nc2ccc(C(F)(F)F)cc2)nc2cc(Oc3ccnc(-c4ncc(C(F)(F)F)[nH]4)c3)ccc21` + CCCCCCCCCCCC1=C(O)C(=O)C=C(O)C1=O [Embelin] (first compound 0.08 µM, partner dose 1.2 µM), the “cleaved PARP positive nuclei fraction” value rises from 55.4% to 176%.

First: Cc1cc(N2CCOCC2)cc2[nH]c(-c3c(NC[C@@H](O)c4cccc(Cl)c4)cc[nH]c3=O)nc12 + O=C(Nc1ccccc1)c1cc([N+](=O)[O-])ccc1Cl [GW9662] (first compound 0.2 µM, partner dose 2 µM)
Second: C#Cc1cccc(Nc2ncnc3cc(OCCOC)c(OCCOC)cc23)c1 [erlotinib] + O=C(O)C(=O)Nc1sc2c(c1C(=O)O)CCNC2 [TCS401] (first compound 0.8 µM, partner dose 1.66667 µM)
The “cleaved PARP positive nuclei fraction” value of the first is lower: 17.5% for the first, 87.7% for the second.

With `C#Cc1cccc(Nc2ncnc3cc(OCCOC)c(OCCOC)cc23)c1` [erlotinib] + COc1cc2ncnc(Nc3ccc(Oc4ccccc4)cc3)c2cc1OC [SrcI1] (first compound 0.8 µM, partner dose 2 µM) the “cleaved PARP positive nuclei fraction” value was 64.6%.
